Source: PMC5955124
No constants are given. Whether binding was seen depends on the method and setting. In cells and extracts the contact can be indirect. Some results given as binding are weak or reduced against the parent protein; the word gives no strength. Tags and fused reporters may be left off the sequences shown.

Amino acid sequences for entries named in this document (tags omitted). Residues count along the entry.
UniProt P08195, residues 102-630: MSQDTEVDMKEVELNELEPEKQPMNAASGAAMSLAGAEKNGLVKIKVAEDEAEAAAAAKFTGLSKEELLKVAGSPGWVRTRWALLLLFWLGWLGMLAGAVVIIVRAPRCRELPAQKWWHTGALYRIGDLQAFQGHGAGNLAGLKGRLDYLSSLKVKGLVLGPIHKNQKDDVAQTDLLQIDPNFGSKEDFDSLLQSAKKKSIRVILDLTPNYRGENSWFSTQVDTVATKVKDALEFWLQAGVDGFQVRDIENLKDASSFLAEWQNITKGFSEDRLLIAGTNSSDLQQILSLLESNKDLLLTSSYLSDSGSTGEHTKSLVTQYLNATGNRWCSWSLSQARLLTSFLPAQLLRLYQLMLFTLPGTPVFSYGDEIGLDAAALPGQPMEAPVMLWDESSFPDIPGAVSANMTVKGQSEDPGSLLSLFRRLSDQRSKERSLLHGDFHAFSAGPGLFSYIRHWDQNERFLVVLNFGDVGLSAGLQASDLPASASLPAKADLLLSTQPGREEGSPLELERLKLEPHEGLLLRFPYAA

T1: histidine six-tagged PTPRJ (human) (UniProt Q12913)
T1 sequence: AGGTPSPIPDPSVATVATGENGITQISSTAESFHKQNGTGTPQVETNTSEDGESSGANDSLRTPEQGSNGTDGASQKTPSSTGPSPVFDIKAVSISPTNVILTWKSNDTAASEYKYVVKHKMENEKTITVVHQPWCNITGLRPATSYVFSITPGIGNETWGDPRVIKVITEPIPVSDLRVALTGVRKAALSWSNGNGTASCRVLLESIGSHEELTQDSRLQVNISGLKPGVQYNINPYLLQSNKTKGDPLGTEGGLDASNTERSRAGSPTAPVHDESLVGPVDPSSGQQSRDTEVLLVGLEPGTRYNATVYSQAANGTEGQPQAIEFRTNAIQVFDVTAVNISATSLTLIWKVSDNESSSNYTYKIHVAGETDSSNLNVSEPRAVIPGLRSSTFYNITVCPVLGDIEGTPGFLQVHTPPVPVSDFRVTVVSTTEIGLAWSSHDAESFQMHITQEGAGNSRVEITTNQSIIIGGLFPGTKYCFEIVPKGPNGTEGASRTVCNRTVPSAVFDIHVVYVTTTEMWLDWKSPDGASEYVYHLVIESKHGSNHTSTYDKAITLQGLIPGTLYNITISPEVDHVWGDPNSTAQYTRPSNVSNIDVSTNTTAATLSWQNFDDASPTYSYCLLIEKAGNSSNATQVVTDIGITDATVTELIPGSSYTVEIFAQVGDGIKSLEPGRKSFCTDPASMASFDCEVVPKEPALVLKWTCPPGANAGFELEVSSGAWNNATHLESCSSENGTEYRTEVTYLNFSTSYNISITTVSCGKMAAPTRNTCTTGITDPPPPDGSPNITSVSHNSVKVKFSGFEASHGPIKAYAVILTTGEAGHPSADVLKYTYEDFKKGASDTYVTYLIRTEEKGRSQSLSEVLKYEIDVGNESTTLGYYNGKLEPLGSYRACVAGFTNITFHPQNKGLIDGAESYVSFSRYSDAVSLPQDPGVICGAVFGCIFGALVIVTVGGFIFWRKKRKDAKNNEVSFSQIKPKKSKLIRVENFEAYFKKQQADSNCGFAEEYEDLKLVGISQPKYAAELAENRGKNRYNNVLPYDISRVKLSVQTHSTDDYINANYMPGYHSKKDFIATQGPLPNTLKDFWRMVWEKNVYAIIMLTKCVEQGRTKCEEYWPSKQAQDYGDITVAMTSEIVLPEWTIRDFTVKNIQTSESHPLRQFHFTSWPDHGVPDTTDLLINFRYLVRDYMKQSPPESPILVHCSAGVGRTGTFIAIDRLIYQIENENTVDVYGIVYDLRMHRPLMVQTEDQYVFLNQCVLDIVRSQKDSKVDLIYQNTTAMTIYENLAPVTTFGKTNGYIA

B1: ectopic PTPRJ protein (wild-type PTPRJ cDNA, Ad PTPRJ) (receptor, UniProt Q12913 36-1337)
chain: T1 sequence

Assays:
[1] = biological target: T1, histidine six-tagged PTPRJ (human); assay: pull-down; called co-immunoprecipitation by the paper: PTPRJ-His6 captured on MagneHis poly(His)-avid magnetic beads from enriched membrane extracts of A549 cells 72 h after infection; blot with CD98hc antibody; control cells with untagged Ad PTPRJ
[2] = biological target: CD98hc (human (endogenous in A549)) (UniProt P08195); assay: co-IP; total lysates (0.5% Igepal CA-630, 150 mM NaCl, 50 mM Tris-HCl pH 7.5) of A549 cells 24 h after infection with Ad PTPRJ at MOI30; immunoprecipitated with CD98hc antibody overnight at 4 C and protein A/G Plus-Agarose; blot with PTPRJ antibody; IgG as control

Molecule	binding [1]	binding [2]
CD98hc (from UniProt P08195 1-529)	binds	
B1		binds
